PubChem BioAssay AID1224826 – NIAID, 2016
Screen: 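Genes that change LPS-induced Tnf promoter activity in mouse macrophages when knocked down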 (primary screen). System: RAW264.7 G9 macrophages from mouse bearing reporters for p65 (GFP) and the Tnf promoter (mCherry). Reagent: siRNA pool against mouse genes, 100 nM. Time to read-out: 16 h of LPS stimulation, after 2 days of siRNA transfection. Treatment: bacterial lipopolysaccharide (Salmonella minnesota R595), 10 ng/ml. Read-out: 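Nuclear mCherry signal of the Tnf promoter reporter measured by imaging after background removal, scaled to each plate median and turned into robust z-scores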. Reading the numbers: Tnf reporter robust z-score: higher = stronger Tnf promoter reporter signal after LPS; Tnf reporter intensity: higher = stronger Tnf promoter reporter signal. Hit rule: 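Called active when robust z-score is at most -1.3, matching the median of the Tlr4 knock-down control, or over 3; control wells and wells with under 50 cells never active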. Meaning of the calls: active = Tnf reporter clearly lowered or raised; inactive = no clear change in Tnf reporter.
The whole screen tested about 17,000 reagents; shown is a part drawn at random. Of all reagents, about 1,110 (6.6%) are marked active. 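Active means lowered or raised reporter signal; replicate intensities are raw and not normalised per plate.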 The numbers tell different reagents against one gene apart. Reagent sequences are not shown.

no.	gene knocked down	pool no.	Tnf reporter robust z-score	fewer than 50 cells in well	Tnf reporter intensity, replicate 1	Tnf reporter intensity, replicate 2	activity call
1	Acad11	1	0.67	enough cells in well	204	192	inactive
2	Nol3	1	-1.22	enough cells in well	129	117	inactive
3	Golga3	1	-1.25	enough cells in well	160	82.8	inactive
4	Socs4	1	0.01	enough cells in well	278	218	inactive
5	Kdm5a	1	-0.11	enough cells in well	241	137	inactive
6	Smap2	1		fewer than 50 cells per well; well left out of calls	136	38.3	inactive
7	Pgd	1	1.66	enough cells in well	198	238	inactive
8	Spaca4	1	2.32	enough cells in well	374	110	inactive
9	H3f3a	1	-0.36	enough cells in well	297	89	inactive
10	Mras	1	-0.37	enough cells in well	218	190	inactive
11	Rcsd1	1	0.47	enough cells in well	273	202	inactive
12	Gfap	1	-0.5	enough cells in well	259	155	inactive
13	Noazfp	1	0.54	enough cells in well	184	106	inactive
14	Hp1bp3	1	-0.98	enough cells in well	169	107	inactive
15	Twist1	1	-1.06	enough cells in well	142	154	inactive
16	9030203C11Rik	1	-1.06	enough cells in well	109	128	inactive
17	Vmn1r49	1	-0.38	enough cells in well	101	80.2	inactive
18	Ociad1	1	-0.59	enough cells in well	125	144	inactive
19	Etfrf1	1	0.96	enough cells in well	272	75.9	inactive
20	Mtss1	1	-0.82	enough cells in well	143	87.9	inactive
21	Cops5	1	-0.81	enough cells in well	146	172	inactive
22	Vmn1r38	1	-0.6	enough cells in well	97	69.1	inactive
23	Hes3	1	-0.98	enough cells in well	246	54.3	inactive
24	Cd14	1	-0.9	enough cells in well	174	142	inactive
25	Ticrr	1	0.73	enough cells in well	225	295	inactive

Next part; the last 8 above are carried over.
no.	gene knocked down	pool no.	Tnf reporter robust z-score	fewer than 50 cells in well	Tnf reporter intensity, replicate 1	Tnf reporter intensity, replicate 2	activity call
18	Ociad1	1	-0.59	enough cells in well	125	144	inactive
19	Etfrf1	1	0.96	enough cells in well	272	75.9	inactive
20	Mtss1	1	-0.82	enough cells in well	143	87.9	inactive
21	Cops5	1	-0.81	enough cells in well	146	172	inactive
22	Vmn1r38	1	-0.6	enough cells in well	97	69.1	inactive
23	Hes3	1	-0.98	enough cells in well	246	54.3	inactive
24	Cd14	1	-0.9	enough cells in well	174	142	inactive
25	Ticrr	1	0.73	enough cells in well	225	295	inactive
26	Wdr76	1	0.34	enough cells in well	181	170	inactive
27	H2-M10.4	1	1.91	enough cells in well	337	315	inactive
28	Tgfbi	1	-0.69	enough cells in well	184	99.3	inactive
29	Ffar1	1	0.41	enough cells in well	224	372	inactive
30	Slc15a5	1	-0.32	enough cells in well	163	167	inactive
31	Krtap19-1	1	-0.64	enough cells in well	159	97.1	inactive
32	Or13a28	1	0.88	enough cells in well	146	153	inactive
33	Tbcel	1	-0.51	enough cells in well	159	92.5	inactive
34	Pml	1		fewer than 50 cells per well; well left out of calls	283	66	inactive
35	Oas1a	1	0.76	enough cells in well	313	220	inactive
36	Or8d23	1	1.39	enough cells in well	212	199	inactive
37	Osbpl1a	1	0.1	enough cells in well	239	196	inactive
38	Osbpl1a	2	-0.79	enough cells in well	176	78.3	inactive
39	Gna13	1	-0.83	enough cells in well	145	231	inactive
40	S100a6	1	-0.26	enough cells in well	246	210	inactive
41	Gyg1	1	0.34	enough cells in well	240	205	inactive
42	St8sia1	1	-0.18	enough cells in well	91.8	98.7	inactive
43	St8sia1	2	0.1	enough cells in well	207	173	inactive
44	Foxi2	1	1.57	enough cells in well	214	245	inactive
45	Afap1l2	1	0.17	enough cells in well	176	179	inactive
46	Retreg2	1	1.91	enough cells in well	214	273	inactive
47	Adam29	1	1.5	enough cells in well	269	238	inactive
48	Elob	1	-0.75	enough cells in well	196	86.4	inactive
49	Serinc3	1	-0.62	enough cells in well	193	101	inactive
50	Acvr2a	1	-0.91	enough cells in well	127	106	inactive
51	Prima1	1	-1.14	enough cells in well	70.8	88.5	inactive
52	Cfap263	1		fewer than 50 cells per well; well left out of calls	218	67.6	inactive
53	Gale	1	0.17	enough cells in well	263	256	inactive
54	Ercc2	1	0.1	enough cells in well	269	203	inactive
55	Or3a1	1	-0.11	enough cells in well	293	68.4	inactive
56	Gpr143	1	-0.74	enough cells in well	130	277	inactive
57	U55872 (retired record)	1	-1.88	enough cells in well	46.3	27.5	active
58	Tmem252	1	-1.43	enough cells in well	101	68.8	active
59	Prlr	1	0.07	enough cells in well	248	200	inactive
60	Prlr	2	-0.4	enough cells in well	192	149	inactive
61	Ache	1	-0.91	enough cells in well	133	98.3	inactive
62	Mpp3	1		fewer than 50 cells per well; well left out of calls	93.1	86.2	inactive
63	Ano7	1	0.71	enough cells in well	232	158	inactive
64	Isoc1	1	2.06	enough cells in well	414	57.5	inactive
65	Btbd1	1	-0.01	enough cells in well	114	162	inactive
66	Gnb1	1	1.02	enough cells in well	258	452	inactive
67	Dnaja4	1	-0.01	enough cells in well	240	197	inactive
68	Or12e8	1	2.21	enough cells in well	288	294	inactive
69	Nav1	1	0.95	enough cells in well	278	152	inactive
70	Zmat1	1	-0.06	enough cells in well	221	182	inactive
71	Sugp2	1	4.62	enough cells in well	246	272	active
72	Cacna1f	1	-0.93	enough cells in well	102	108	inactive
73	Prl3c1	1	-0.24	enough cells in well	166	71.9	inactive
74	Ces1e	1	-1.58	enough cells in well	139	48.5	active
75	4930544M13Rik	1		fewer than 50 cells per well; well left out of calls	161	53.8	inactive
